Laboratory results published in PMC7032569.
These are yes or no findings as the source states them, for the method shown. In cells and extracts the contact can be indirect. Some binding calls cover weakened binding; strength is not graded here.

Tests used:
[1] = molecular target: Polyamination-defective 4EBP1-GST (Q28,95,113A) (human) (UniProt Q13541); assay: pull-down; lysates of A549 cells incubated with purified wild-type or mutant 4EBP1-GST, pull-down (legend: streptavidin), blots with anti-TG2 and anti-eIF4E; only the target purified
[2] = molecular target: Recombinant 4EBP1-GST fusion protein, wild type (human) (UniProt Q13541); assay: as above

B1: Transglutaminase 2 (TG2), endogenous in A549 cells (enzyme, UniProt P21980 1-687)
chain: MAEELVLERCDLELETNGRDHHTADLCREKLVVRRGQPFWLTLHFEGRNYEASVDSLTFSVVTGPAPSQEAGTKARFPLRDAVEEGDWTATVVDQQDCTLSLQLTTPANAPIGLYRLSLEASTGYQGSSFVLGHFILLFNAWCPADAVYLDSEEERQEYVLTQQGFIYQGSAKFIKNIPWNFGQFEDGILDICLILLDVNPKFLKNAGRDCSRRSSPVYVGRVVSGMVNCNDDQGVLLGRWDNNYGDGVSPMSWIGSVDILRRWKNHGCQRVKYGQCWVFAAVACTVLRCLGIPTRVVTNYNSAHDQNSNLLIEYFRNEFGEIQGDKSEMIWNFHCWVESWMTRPDLQPGYEGWQALDPTPQEKSEGTYCCGPVPVRAIKEGDLSTKYDAPFVFAEVNADVVDWIQQDDGSVHKSINRSLIVGLKISTKSVGRDEREDITHTYKYPEGSSEEREAFTRANHLNKLAEKEETGMAMRIRVGQSMNMGSDFDVFAHITNNTAEEYVCRLLLCARTVSYNGILGPECGTKYLLNLNLEPFSEKSVPLCILYEKYRDCLTESNLIKVRALLVEPVINSYLLAERDLYLENPEIKIRILGEPKQKRKLVAEVSLQNPLPVALEGCTFTVEGAGLTEEQKTVEIPDPVEAGEEVKVRMDLLPLHMGLHKLVVNFESDKLKAVKGFRNVIIGPA
binding [1]: binds | binding [2]: binds
